# Reference: paper PMC7950214
# No constants are given. Whether binding was seen depends on the method and setting. Binding calls can cover weak binding; strength is not graded here. For part of these data: Tags and fused reporters may be left off the sequences shown. For part of these data: In cells and extracts the contact can be indirect.
# T1: nGFP-MAX2 (Arabidopsis thaliana) (UniProt Q9SIM9)
# T1 sequence: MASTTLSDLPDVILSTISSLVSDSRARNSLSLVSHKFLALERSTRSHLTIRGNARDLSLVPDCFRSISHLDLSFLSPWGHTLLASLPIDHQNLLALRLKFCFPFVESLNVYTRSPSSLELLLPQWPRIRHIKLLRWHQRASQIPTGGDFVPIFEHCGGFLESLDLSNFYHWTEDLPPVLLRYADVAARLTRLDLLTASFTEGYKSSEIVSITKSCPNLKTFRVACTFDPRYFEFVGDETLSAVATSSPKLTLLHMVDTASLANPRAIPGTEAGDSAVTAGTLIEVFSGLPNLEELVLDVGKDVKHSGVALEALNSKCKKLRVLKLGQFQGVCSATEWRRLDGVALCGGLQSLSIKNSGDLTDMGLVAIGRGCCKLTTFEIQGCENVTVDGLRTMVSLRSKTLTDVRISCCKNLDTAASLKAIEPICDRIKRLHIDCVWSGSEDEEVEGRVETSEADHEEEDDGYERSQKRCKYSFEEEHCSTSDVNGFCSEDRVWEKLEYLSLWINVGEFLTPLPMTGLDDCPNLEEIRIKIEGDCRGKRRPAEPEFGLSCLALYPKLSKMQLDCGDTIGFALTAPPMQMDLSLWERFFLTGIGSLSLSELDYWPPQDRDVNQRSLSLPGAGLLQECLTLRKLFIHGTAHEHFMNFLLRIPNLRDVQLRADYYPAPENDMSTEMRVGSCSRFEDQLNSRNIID
# How the values were obtained:
# [1] = molecular target: T1, nGFP-MAX2 (Arabidopsis thaliana); experiment: split reporter; BiFC with nGFP and cGFP fusions (35S promoter) coexpressed in N. benthamiana leaves; confocal microscopy
# [2] = molecular target: PAPP5-BD (PAPP5 as yeast two-hybrid bait in pGILDA) (Arabidopsis thaliana); experiment: two-hybrid; LexA-based; bait in pGILDA, prey in pB42AD, S. cerevisiae EGY48; blue colonies on SD Gal/Raf -Ura-Trp-His with X-Gal; 10 μM rac-GR24 or 0.1% acetone in the medium to test its influence
# [3] = molecular target: PAPP5-GFP (Arabidopsis thaliana); experiment: co-IP; GFP-Trap-A on extracts of N. benthamiana leaves coexpressing the GFP and 3HA fusions; washes with 150 mM NaCl, 0.5% NP-40; anti-HA blot; leaves mock treated or injected with 10 μM rac-GR24
Molecule,binding [2],other results
cGFP-PAPP5 (Arabidopsis thaliana) (enzyme),,binding [1]: binds
"MAX2-AD (MAX2 as yeast two-hybrid prey in pB42AD) (protein, UniProt Q9SIM9 1-693) MASTTLSDLPDVILSTISSLVSDSRARNSLSLVSHKFLALERSTRSHLTIRGNARDLSLVPDCFRSISHLDLSFLSPWGHTLLASLPIDHQNLLALRLKFCFPFVESLNVYTRSPSSLELLLPQWPRIRHIKLLRWHQRASQIPTGGDFVPIFEHCGGFLESLDLSNFYHWTEDLPPVLLRYADVAARLTRLDLLTASFTEGYKSSEIVSITKSCPNLKTFRVACTFDPRYFEFVGDETLSAVATSSPKLTLLHMVDTASLANPRAIPGTEAGDSAVTAGTLIEVFSGLPNLEELVLDVGKDVKHSGVALEALNSKCKKLRVLKLGQFQGVCSATEWRRLDGVALCGGLQSLSIKNSGDLTDMGLVAIGRGCCKLTTFEIQGCENVTVDGLRTMVSLRSKTLTDVRISCCKNLDTAASLKAIEPICDRIKRLHIDCVWSGSEDEEVEGRVETSEADHEEEDDGYERSQKRCKYSFEEEHCSTSDVNGFCSEDRVWEKLEYLSLWINVGEFLTPLPMTGLDDCPNLEEIRIKIEGDCRGKRRPAEPEFGLSCLALYPKLSKMQLDCGDTIGFALTAPPMQMDLSLWERFFLTGIGSLSLSELDYWPPQDRDVNQRSLSLPGAGLLQECLTLRKLFIHGTAHEHFMNFLLRIPNLRDVQLRADYYPAPENDMSTEMRVGSCSRFEDQLNSRNIID",binds,
"MAX2ΔFBOX-AD (MAX2ΔFBOX as yeast two-hybrid prey in pB42AD) (domain or fragment, UniProt Q9SIM9 54-693) ARDLSLVPDCFRSISHLDLSFLSPWGHTLLASLPIDHQNLLALRLKFCFPFVESLNVYTRSPSSLELLLPQWPRIRHIKLLRWHQRASQIPTGGDFVPIFEHCGGFLESLDLSNFYHWTEDLPPVLLRYADVAARLTRLDLLTASFTEGYKSSEIVSITKSCPNLKTFRVACTFDPRYFEFVGDETLSAVATSSPKLTLLHMVDTASLANPRAIPGTEAGDSAVTAGTLIEVFSGLPNLEELVLDVGKDVKHSGVALEALNSKCKKLRVLKLGQFQGVCSATEWRRLDGVALCGGLQSLSIKNSGDLTDMGLVAIGRGCCKLTTFEIQGCENVTVDGLRTMVSLRSKTLTDVRISCCKNLDTAASLKAIEPICDRIKRLHIDCVWSGSEDEEVEGRVETSEADHEEEDDGYERSQKRCKYSFEEEHCSTSDVNGFCSEDRVWEKLEYLSLWINVGEFLTPLPMTGLDDCPNLEEIRIKIEGDCRGKRRPAEPEFGLSCLALYPKLSKMQLDCGDTIGFALTAPPMQMDLSLWERFFLTGIGSLSLSELDYWPPQDRDVNQRSLSLPGAGLLQECLTLRKLFIHGTAHEHFMNFLLRIPNLRDVQLRADYYPAPENDMSTEMRVGSCSRFEDQLNSRNIID",binds,
"MAX2-3HA (protein, UniProt Q9SIM9 1-693) MASTTLSDLPDVILSTISSLVSDSRARNSLSLVSHKFLALERSTRSHLTIRGNARDLSLVPDCFRSISHLDLSFLSPWGHTLLASLPIDHQNLLALRLKFCFPFVESLNVYTRSPSSLELLLPQWPRIRHIKLLRWHQRASQIPTGGDFVPIFEHCGGFLESLDLSNFYHWTEDLPPVLLRYADVAARLTRLDLLTASFTEGYKSSEIVSITKSCPNLKTFRVACTFDPRYFEFVGDETLSAVATSSPKLTLLHMVDTASLANPRAIPGTEAGDSAVTAGTLIEVFSGLPNLEELVLDVGKDVKHSGVALEALNSKCKKLRVLKLGQFQGVCSATEWRRLDGVALCGGLQSLSIKNSGDLTDMGLVAIGRGCCKLTTFEIQGCENVTVDGLRTMVSLRSKTLTDVRISCCKNLDTAASLKAIEPICDRIKRLHIDCVWSGSEDEEVEGRVETSEADHEEEDDGYERSQKRCKYSFEEEHCSTSDVNGFCSEDRVWEKLEYLSLWINVGEFLTPLPMTGLDDCPNLEEIRIKIEGDCRGKRRPAEPEFGLSCLALYPKLSKMQLDCGDTIGFALTAPPMQMDLSLWERFFLTGIGSLSLSELDYWPPQDRDVNQRSLSLPGAGLLQECLTLRKLFIHGTAHEHFMNFLLRIPNLRDVQLRADYYPAPENDMSTEMRVGSCSRFEDQLNSRNIID",,binding [3]: binds
"KAI2-AD (KAI2 as yeast two-hybrid prey in pB42AD) (receptor, UniProt Q9SZU7 1-270) MGVVEEAHNVKVIGSGEATIVLGHGFGTDQSVWKHLVPHLVDDYRVVLYDNMGAGTTNPDYFDFDRYSNLEGYSFDLIAILEDLKIESCIFVGHSVSAMIGVLASLNRPDLFSKIVMISASPRYVNDVDYQGGFEQEDLNQLFEAIRSNYKAWCLGFAPLAVGGDMDSIAVQEFSRTLFNMRPDIALSVGQTIFQSDMRQILPFVTVPCHILQSVKDLAVPVVVSEYLHANLGCESVVEVIPSDGHLPQLSSPDSVIPVILRHIRNDIAM",no binding,
"D14-AD (D14 as yeast two-hybrid prey in pB42AD) (receptor, UniProt Q9SQR3 1-267) MSQHNILEALNVRVVGTGDRILFLAHGFGTDQSAWHLILPYFTQNYRVVLYDLVCAGSVNPDYFDFNRYTTLDPYVDDLLNIVDSLGIQNCAYVGHSVSAMIGIIASIRRPELFSKLILIGFSPRFLNDEDYHGGFEEGEIEKVFSAMEANYEAWVHGFAPLAVGADVPAAVREFSRTLFNMRPDISLFVSRTVFNSDLRGVLGLVRVPTCVIQTAKDVSVPASVAEYLRSHLGGDTTVETLKTEGHLPQLSAPAQLAQFLRRALPR",no binding,
